# Protein sequences can lack the tags named with them. For part of these data: For at least one entry, the source does not settle the construct or the ends of the probe.
# Tests used:
# [1] = system: T1, BseRI restriction endonuclease (recombinant) (Bacillus species R); assay: enzyme reaction in vitro; details: lambda DNA digested with IPTG-induced cell extract; protein in a lysate after overexpression
# T1 sequence: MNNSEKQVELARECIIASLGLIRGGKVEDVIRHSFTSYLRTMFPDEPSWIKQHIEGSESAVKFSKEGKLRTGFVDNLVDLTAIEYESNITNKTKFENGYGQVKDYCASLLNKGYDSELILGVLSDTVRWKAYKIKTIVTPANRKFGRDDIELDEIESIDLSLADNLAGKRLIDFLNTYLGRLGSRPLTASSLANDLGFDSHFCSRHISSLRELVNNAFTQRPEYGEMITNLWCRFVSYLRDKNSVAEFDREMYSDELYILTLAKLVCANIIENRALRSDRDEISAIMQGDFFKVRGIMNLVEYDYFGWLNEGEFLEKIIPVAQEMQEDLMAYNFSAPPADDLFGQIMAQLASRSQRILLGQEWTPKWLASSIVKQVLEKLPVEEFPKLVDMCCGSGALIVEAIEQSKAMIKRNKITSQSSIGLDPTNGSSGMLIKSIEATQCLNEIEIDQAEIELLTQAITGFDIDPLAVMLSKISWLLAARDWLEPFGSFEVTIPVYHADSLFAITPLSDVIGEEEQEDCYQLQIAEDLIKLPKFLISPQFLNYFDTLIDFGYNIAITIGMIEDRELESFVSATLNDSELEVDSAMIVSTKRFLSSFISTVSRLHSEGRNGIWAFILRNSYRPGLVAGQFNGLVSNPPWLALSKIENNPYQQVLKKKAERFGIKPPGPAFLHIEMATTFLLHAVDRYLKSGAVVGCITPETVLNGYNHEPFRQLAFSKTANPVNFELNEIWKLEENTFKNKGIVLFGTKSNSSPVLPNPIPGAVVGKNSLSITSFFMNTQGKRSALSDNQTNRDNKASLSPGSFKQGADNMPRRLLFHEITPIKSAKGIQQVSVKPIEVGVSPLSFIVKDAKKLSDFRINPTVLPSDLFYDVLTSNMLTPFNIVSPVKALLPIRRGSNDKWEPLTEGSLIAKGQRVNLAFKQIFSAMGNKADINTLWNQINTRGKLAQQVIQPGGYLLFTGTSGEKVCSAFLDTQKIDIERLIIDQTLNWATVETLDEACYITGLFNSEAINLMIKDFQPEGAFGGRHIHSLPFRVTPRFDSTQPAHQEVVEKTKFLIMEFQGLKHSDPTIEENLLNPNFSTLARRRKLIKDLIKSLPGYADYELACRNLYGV
# [2] = system: T2, BseRI restriction endonuclease (native) (Bacillus species R); assay: enzyme reaction in vitro; details: lambda DNA digested with purified native BseRI; purified native protein
# T2 sequence: T1 sequence
# [3] = system: T3, M.BseRI methylase (Bacillus species R); assay: activity in cells; details: 10 of 36 plasmids resistant to BseRI digestion, both vector sites fully modified; protein in cells; protein details: expressed from pACYC184 in E. coli ER2683; only the site is given
# T3 sequence: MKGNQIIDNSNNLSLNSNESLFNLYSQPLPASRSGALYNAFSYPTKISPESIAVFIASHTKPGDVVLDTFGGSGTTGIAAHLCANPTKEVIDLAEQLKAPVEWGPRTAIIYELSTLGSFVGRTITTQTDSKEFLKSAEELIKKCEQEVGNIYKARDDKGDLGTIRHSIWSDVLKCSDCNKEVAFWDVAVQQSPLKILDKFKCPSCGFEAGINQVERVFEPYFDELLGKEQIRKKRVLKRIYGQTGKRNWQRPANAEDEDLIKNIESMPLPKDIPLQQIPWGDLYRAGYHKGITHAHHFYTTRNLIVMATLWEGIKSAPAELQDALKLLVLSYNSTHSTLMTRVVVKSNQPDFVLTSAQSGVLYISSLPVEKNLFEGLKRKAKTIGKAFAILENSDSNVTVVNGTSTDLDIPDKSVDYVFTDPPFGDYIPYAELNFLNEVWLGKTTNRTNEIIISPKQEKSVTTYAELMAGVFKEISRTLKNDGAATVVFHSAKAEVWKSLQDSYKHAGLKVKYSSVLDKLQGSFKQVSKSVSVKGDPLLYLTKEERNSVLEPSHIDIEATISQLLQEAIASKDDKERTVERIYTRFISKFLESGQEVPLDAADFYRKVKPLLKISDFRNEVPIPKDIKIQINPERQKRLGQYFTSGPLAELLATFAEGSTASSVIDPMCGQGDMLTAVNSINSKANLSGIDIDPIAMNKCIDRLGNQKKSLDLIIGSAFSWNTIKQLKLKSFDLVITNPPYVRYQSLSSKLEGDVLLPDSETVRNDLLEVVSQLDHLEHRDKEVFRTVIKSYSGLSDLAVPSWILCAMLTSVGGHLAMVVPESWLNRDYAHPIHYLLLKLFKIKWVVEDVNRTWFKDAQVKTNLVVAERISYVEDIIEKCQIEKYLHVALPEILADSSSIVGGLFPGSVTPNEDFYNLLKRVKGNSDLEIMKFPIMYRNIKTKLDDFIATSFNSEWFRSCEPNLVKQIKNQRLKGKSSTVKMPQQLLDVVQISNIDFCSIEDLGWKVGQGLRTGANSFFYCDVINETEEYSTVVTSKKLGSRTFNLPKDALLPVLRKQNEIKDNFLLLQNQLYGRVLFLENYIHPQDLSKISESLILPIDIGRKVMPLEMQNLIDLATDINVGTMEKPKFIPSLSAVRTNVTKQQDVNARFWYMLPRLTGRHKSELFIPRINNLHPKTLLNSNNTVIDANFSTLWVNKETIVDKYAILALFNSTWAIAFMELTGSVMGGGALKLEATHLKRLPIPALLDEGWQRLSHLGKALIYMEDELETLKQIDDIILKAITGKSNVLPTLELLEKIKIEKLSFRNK
Sequence,activity on this sequence [1],activity on this sequence [2],activity on this sequence [3]
GAGGAG (double strand) [BseRI recognition site in lambda DNA],active,active,–
GAGGAG (double strand) [BseRI sites (2) in pACYC184-BseRIM plasmid],–,–,active

# — US6593122
